Assay results taken from patent publication US20090209937A1 (priority 2007, published 2009).
Some of these results come from one statement about several compounds together.

Tested on: fully amygdala kindled rats
Details: rat, in vivo

## ω-conotoxin GVIA [ω-CTX-G]
  persistence of alterations in brain excitability at the site of the infusion: up to 1 week
